This note sets out measurements from paper PMC9411329.

By UniProt entry, the sequences of proteins in these tests, tags left out.
UniProt O14980: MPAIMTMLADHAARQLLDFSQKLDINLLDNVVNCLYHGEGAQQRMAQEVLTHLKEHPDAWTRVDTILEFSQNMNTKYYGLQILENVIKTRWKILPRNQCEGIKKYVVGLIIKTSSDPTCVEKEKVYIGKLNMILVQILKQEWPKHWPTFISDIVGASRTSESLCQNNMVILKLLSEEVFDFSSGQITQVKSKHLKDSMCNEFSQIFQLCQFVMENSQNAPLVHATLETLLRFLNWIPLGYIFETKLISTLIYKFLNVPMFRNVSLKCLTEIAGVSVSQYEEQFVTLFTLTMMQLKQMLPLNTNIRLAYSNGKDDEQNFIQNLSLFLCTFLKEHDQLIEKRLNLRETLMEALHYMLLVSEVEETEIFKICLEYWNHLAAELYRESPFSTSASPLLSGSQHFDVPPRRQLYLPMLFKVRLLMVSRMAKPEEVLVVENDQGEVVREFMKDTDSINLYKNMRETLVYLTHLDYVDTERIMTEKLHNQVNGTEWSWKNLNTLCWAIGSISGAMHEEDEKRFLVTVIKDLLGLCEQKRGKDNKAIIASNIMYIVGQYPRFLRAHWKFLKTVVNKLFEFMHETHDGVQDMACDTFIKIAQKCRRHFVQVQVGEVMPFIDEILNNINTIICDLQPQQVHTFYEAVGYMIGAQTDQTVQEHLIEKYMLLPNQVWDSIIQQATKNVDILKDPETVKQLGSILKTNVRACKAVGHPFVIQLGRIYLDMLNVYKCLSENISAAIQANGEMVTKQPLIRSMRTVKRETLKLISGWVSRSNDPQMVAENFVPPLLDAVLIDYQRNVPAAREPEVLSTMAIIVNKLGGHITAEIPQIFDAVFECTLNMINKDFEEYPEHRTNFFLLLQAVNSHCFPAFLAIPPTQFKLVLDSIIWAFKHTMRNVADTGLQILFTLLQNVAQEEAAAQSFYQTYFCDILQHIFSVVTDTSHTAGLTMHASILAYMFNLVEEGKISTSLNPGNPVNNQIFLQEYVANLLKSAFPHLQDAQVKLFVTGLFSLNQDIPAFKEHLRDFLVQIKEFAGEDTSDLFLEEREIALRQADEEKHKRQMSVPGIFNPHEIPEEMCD
UniProt Q9UMX0: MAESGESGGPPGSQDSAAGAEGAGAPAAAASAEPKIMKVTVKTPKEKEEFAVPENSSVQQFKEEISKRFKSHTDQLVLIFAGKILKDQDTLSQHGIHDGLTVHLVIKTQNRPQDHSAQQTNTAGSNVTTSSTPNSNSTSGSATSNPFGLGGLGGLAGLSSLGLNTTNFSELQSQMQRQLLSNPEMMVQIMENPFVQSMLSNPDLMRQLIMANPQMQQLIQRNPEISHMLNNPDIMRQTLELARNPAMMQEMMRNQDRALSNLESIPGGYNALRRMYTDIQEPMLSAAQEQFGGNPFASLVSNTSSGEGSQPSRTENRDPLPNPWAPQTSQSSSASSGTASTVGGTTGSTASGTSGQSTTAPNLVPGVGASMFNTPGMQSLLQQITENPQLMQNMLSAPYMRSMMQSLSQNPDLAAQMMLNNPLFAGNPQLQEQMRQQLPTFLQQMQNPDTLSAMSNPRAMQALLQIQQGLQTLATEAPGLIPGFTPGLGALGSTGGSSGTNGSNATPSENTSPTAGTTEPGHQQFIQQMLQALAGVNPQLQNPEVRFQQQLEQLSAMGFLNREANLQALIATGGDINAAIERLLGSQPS

No constants are given. Whether binding was seen depends on the method and setting. Binding seen in cells or lysates may run through a third protein. Some entries that bind do so weakly or less than the wild type.

Test [1] deals with exportin-1 (human (endogenous in Jurkat)) (UniProt O14980). Description: co-IP; lysates of EVs released by WT and CD47-deficient Jurkat T cells (untreated, 20 nM LMB or TSP1 treated cells); IP with exportin-1 antibody on magnetic beads overnight at 4 °C in PBS with Triton X-100, Western blot.
For test [2] the target is unchanged. Description: co-IP; Jurkat cell lysates (whole cell lysates for Fig. 2e,f); IP of ubiquilin-1 or exportin-1 on Protein A/G magnetic beads overnight at 4 °C, Western blot; cells with or without LMB pretreatment, lysates with or without 10 µM GTPγS for 15 min on ice. (In general: In western blotting, separated proteins are transferred to a membrane and probed.)
In test [3] the target is ubiquilin-1 (human (endogenous in Jurkat)) (UniProt Q9UMX0). The test is described as above.

In the case of ubiquilin-1 (from UniProt Q9UMX0 1-589), the binding result in test [1] and in test [2] was “binds” throughout. Regarding exportin-1 (from UniProt O14980 1-1071), the binding result in test [3] was “binds”.

B1: Ran binding protein-3 (protein, UniProt Q9H6Z4 1-567)
chain: MADLANEEKPAIAPPVFVFQKDKGQKSPAEQKNLSDSGEEPRGEAEAPHHGTGHPESAGEHALEPPAPAGASASTPPPPAPEAQLPPFPRELAGRSAGGSSPEGGEDSDREDGNYCPPVKRERTSSLTQFPPSQSEERSSGFRLKPPTLIHGQAPSAGLPSQKPKEQQRSVLRPAVLQAPQPKALSQTVPSSGTNGVSLPADCTGAVPAASPDTAAWRSPSEAADEVCALEEKEPQKNESSNASEEEACEKKDPATQQAFVFGQNLRDRVKLINESVDEADMENAGHPSADTPTATNYFLQYISSSLENSTNSADASSNKFVFGQNMSERVLSPPKLNEVSSDANRENAAAESGSESSSQEATPEKESLAESAAAYTKATARKCLLEKVEVITGEEAESNVLQMQCKLFVFDKTSQSWVERGRGLLRLNDMASTDDGTLQSRLVMRTQGSLRLILNTKLWAQMQIDKASEKSIRITAMDTEDQGVKVFLISASSKDTGQLYAALHHRILALRSRVEQEQEAKMPAPEPGAAPSNEEDDSDDDDVLAPSGATAAGAGDEGDGQTTGST
Consider B1, for which, in test [1], the binding entry is recorded as “binds”.
